Measurements reported in PubChem BioAssay AID1259308 (NCATS, 2017)
In all, the deposit lists about 59,000 reagents; this is a random part of them. About 1,510 of them (2.6%) count as active. 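Calls use total luciferase alone and ignore viability, so some active siRNAs may act by altering cell number.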 Reagents against one gene are numbered here. Further read-outs or replicates are left out here. Reagent sequences are not shown.

Aim: 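Knock-downs that increase output of a recombinant reporter protein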 (primary screen)
System: human HEK293 embryonic kidney cells stably expressing firefly luciferase (HEK-CMV-Luc2-Hygro)
Reagent: single siRNA against human genes, 0.8 pmol siRNA per well
Time to read-out: 72 h
Measurement: 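Luciferase light (ONE-Glo) measured on one replicate plate set and viability (CellTiter-Glo) on the other, scaled to a negative control siRNA, with robust z-scores and luciferase per cell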
Scale: total luciferase, z-score and total luciferase, % of control: higher = more reporter protein produced
Hit rule: 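An siRNA counts as active if its total luciferase robust z-score exceeds 3; genes with two or more such siRNAs out of three were retested with fresh siRNAs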
Meaning of the calls: active = raised luciferase; inactive = no rise

OFCC1 (orofacial cleft 1 candidate 1 (pseudogene)) #1 — total luciferase, z-score = 0.684; total luciferase, % of control = 95.5; call = inactive
OFCC1 (orofacial cleft 1 candidate 1 (pseudogene)) #2 — total luciferase, z-score = -0.583; total luciferase, % of control = 70.3; call = inactive
OFCC1 (orofacial cleft 1 candidate 1 (pseudogene)) #3 — total luciferase, z-score = 2.15; total luciferase, % of control = 125; call = inactive
SLC66A1LP #1 — total luciferase, z-score = -0.0897; total luciferase, % of control = 80.1; call = inactive
SLC66A1LP #2 — total luciferase, z-score = 0.483; total luciferase, % of control = 91.5; call = inactive
SLC66A1LP #3 — total luciferase, z-score = 0.842; total luciferase, % of control = 98.6; call = inactive
ABO #1 — total luciferase, z-score = -0.117; total luciferase, % of control = 79.6; call = inactive
ABO #2 — total luciferase, z-score = -0.366; total luciferase, % of control = 74.6; call = inactive
ABO #3 — total luciferase, z-score = 1.63; total luciferase, % of control = 114; call = inactive
NME3 (NME/NM23 nucleoside diphosphate kinase 3) #1 — total luciferase, z-score = 2.38; total luciferase, % of control = 129; call = inactive
NME3 (NME/NM23 nucleoside diphosphate kinase 3) #2 — total luciferase, z-score = 3.22; total luciferase, % of control = 146; call = active
NME3 (NME/NM23 nucleoside diphosphate kinase 3) #3 — total luciferase, z-score = 0.184; total luciferase, % of control = 85.5; call = inactive
CEP112 (centrosomal protein 112) #1 — total luciferase, z-score = -0.517; total luciferase, % of control = 71.6; call = inactive
CEP112 (centrosomal protein 112) #2 — total luciferase, z-score = -2.13; total luciferase, % of control = 39.5; call = inactive
CEP112 (centrosomal protein 112) #3 — total luciferase, z-score = -1.89; total luciferase, % of control = 44.2; call = inactive
SLC8A1 #1 — total luciferase, z-score = -0.511; total luciferase, % of control = 71.7; call = inactive
SLC8A1 #2 — total luciferase, z-score = -0.215; total luciferase, % of control = 77.6; call = inactive
SLC8A1 #3 — total luciferase, z-score = -0.00644; total luciferase, % of control = 81.8; call = inactive
HERPUD2 (HERPUD family member 2) #1 — total luciferase, z-score = -0.454; total luciferase, % of control = 72.8; call = inactive
HERPUD2 (HERPUD family member 2) #2 — total luciferase, z-score = 2.9; total luciferase, % of control = 140; call = inactive
HERPUD2 (HERPUD family member 2) #3 — total luciferase, z-score = 1.76; total luciferase, % of control = 117; call = inactive
PXDC1 (PX domain containing 1) #1 — total luciferase, z-score = 0.62; total luciferase, % of control = 94.2; call = inactive
PXDC1 (PX domain containing 1) #2 — total luciferase, z-score = 2.5; total luciferase, % of control = 132; call = inactive
PXDC1 (PX domain containing 1) #3 — total luciferase, z-score = -0.403; total luciferase, % of control = 73.9; call = inactive
C20orf202 (chromosome 20 open reading frame 202) #1 — total luciferase, z-score = 2.35; total luciferase, % of control = 129; call = inactive
C20orf202 (chromosome 20 open reading frame 202) #2 — total luciferase, z-score = 4.35; total luciferase, % of control = 168; call = active
C20orf202 (chromosome 20 open reading frame 202) #3 — total luciferase, z-score = -1.62; total luciferase, % of control = 49.6; call = inactive
HSD17B4 (hydroxysteroid 17-beta dehydrogenase 4) #1 — total luciferase, z-score = 0.156; total luciferase, % of control = 85; call = inactive
HSD17B4 (hydroxysteroid 17-beta dehydrogenase 4) #2 — total luciferase, z-score = 0.937; total luciferase, % of control = 101; call = inactive
HSD17B4 (hydroxysteroid 17-beta dehydrogenase 4) #3 — total luciferase, z-score = -0.463; total luciferase, % of control = 72.7; call = inactive
POSTN (periostin) #1 — total luciferase, z-score = 1.19; total luciferase, % of control = 106; call = inactive
POSTN (periostin) #2 — total luciferase, z-score = 0.487; total luciferase, % of control = 91.6; call = inactive
POSTN (periostin) #3 — total luciferase, z-score = -0.0311; total luciferase, % of control = 81.3; call = inactive

Single entries from the list.
Result of POSTN (periostin) #3 under “total luciferase, % of control”: 81.3
HSD17B4 (hydroxysteroid 17-beta dehydrogenase 4) #3, call → inactive
For “call”, SLC8A1 #3 is entered as inactive
